From US20090258030A1, “Materials and Methods for Improving Livestock Productivity” (priority 2006, published 2009)
Counter-ions that a name gives are not always drawn.

Experiment: Sensory evaluation of pork from swine fed diets with cysteamine HCl (Example 3)
Format: in vivo
Conditions: 150 g cysteamine hydrochloride per ton of feed

NCCS [Cysteamine Hydrochloride, cysteamine hydrochloride]
sensory review of meat flavor and attributes, treated vs untreated swine: no significant difference
